The target in the experiment is T1, recombinant AtNF-YC4 (full-length), tagged, for pull-down (Arabidopsis thaliana) (UniProt Q9FMV5).
T1 sequence (looked up): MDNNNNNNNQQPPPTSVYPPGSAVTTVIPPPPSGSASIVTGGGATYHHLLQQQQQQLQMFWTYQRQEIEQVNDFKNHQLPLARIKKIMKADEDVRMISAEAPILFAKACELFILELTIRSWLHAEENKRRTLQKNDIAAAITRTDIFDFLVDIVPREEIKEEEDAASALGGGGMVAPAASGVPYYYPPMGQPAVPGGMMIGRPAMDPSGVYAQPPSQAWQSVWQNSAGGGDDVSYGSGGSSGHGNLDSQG
The experiment is described as follows: GST pull-down, immunoblot.

No constants are given. Whether binding was seen depends on the method and setting. Binding seen in cells or lysates may run through a third protein. Some results given as binding are weak or reduced against the parent protein; the word gives no strength. Where a sequence is shown, tags or fusion partners need not be part of it.

B1: GST-QQS fusion protein (protein, not shown: a dimerising Fc or GST)
chain: MKTNREQEIYVERSFKPNNSTIQNLMDIERFILPHTSTSGVARLKMRVISWVGLQFYNY
Turning to B1, the binding result is on record as “binds”.
